Among the data in publication PMC6089211, “Expression and purification of human diacylglycerol kinase α from baculovirus-infected insect cells for structural studies” (PeerJ, 2018) are binding values, retold here.

Amino acid sequences for entries named in this document (tags omitted).
UniProt P23743: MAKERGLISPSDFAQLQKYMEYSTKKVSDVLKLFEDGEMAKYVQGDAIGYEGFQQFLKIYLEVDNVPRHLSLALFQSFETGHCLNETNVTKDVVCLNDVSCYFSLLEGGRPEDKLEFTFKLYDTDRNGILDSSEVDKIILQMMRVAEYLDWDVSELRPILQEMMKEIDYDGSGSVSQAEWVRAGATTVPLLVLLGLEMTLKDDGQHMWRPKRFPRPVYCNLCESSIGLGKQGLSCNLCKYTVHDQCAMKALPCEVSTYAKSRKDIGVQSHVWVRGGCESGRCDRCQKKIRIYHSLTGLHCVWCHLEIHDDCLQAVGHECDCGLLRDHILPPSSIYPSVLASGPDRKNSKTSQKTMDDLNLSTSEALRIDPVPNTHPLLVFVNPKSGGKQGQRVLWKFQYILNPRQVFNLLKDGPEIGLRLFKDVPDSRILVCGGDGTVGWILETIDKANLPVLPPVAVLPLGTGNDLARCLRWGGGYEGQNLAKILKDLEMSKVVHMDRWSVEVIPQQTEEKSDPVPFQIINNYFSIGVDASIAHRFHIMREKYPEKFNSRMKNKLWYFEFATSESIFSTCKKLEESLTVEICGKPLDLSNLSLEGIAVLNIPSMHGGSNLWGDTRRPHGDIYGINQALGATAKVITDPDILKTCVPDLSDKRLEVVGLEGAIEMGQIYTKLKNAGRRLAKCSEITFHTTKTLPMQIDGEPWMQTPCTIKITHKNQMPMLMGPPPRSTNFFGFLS

These are yes or no findings as the source states them, for the method shown.

Assay [1] concerns the target full-length human diacylglycerol kinase α (aa 1–735) with N-terminal His×6 tag (human) (UniProt P23743). The assay is described as follows: SEC; Superdex 200 16/60; 15 mL of the 50 mM imidazole Ni-affinity fraction concentrated to 4 mL with a centrifugal filter (Amicon Ultra-15); 20 mM Tris-HCl pH 7.4, 200 mM NaCl, 3 mM CaCl2, 3 mM MgCl2, 0.5 mM DTT, 5% glycerol; both purified. For orientation: SEC sorts molecules by how far they enter the pores of the column.

For assay [2] the target is unchanged. The assay is described as follows: SEC; Superdex 200 16/60; Ni-affinity fractions of DGKα; 20 mM Tris–HCl pH 7.4, 200 mM NaCl, 3 mM CaCl2, 3 mM MgCl2, 0.5 mM dithiothreitol, 5% glycerol; calibrated with gel filtration standards; single peak at 73.5 mL; both purified.

As to “full-length human diacylglycerol kinase α (aa 1–735) with N-terminal His×6 tag (from UniProt P23743 1-735) (enzyme)”, the binding entry in assay [1] and in assay [2] was “no binding” in each case.
